# Patent US20160354437A1 (NORTHWESTERN UNIVERSITY, published 2016)
# These are yes or no findings as the source states them, for the method shown. In cells and extracts the contact can be indirect. A result given as binding can be weak or reduced; the word gives no strength. Sequences can lack the tags named with a protein.
# B1: GST-POP3 (other)
# chain: MESKYKEILLLTSLDNITDEELDRFKCFLPDEFNIATGKLHTLNSTSSQLDLKRWHGVCSEEDRIFQKLNYMLVAKCLREEQETGICGSPSSARSVSQSRLGLSFHGISGNAC
# notes: also called recombinant POP3; immobilized GST-POP3; not shown: glutathione S-transferase (GST) tag encoded by pGEX-4T1
# Experiments:
# [1] = target: IFI16 from BMDM (mouse); assay: GST pull-down from BMDM lysates (FIG. 11a)
# [2] = target: IFI16 from BMDM (mouse); assay: figure title; GST pull-down from BMDM lysates
binder,measurement,setting,value
B1,binding,[1],binds
same,binding,[2],binds
